Publication doi:10.1101/2022.06.11.495600
Results are given in words; binding and its absence hold for the method and conditions named. Some binding calls cover weakened binding; strength is not graded here.

The chains behind the UniProt entries cited, without tags or fusion partners. Residues count along the entry.
UniProt O75581, residues 20-1613: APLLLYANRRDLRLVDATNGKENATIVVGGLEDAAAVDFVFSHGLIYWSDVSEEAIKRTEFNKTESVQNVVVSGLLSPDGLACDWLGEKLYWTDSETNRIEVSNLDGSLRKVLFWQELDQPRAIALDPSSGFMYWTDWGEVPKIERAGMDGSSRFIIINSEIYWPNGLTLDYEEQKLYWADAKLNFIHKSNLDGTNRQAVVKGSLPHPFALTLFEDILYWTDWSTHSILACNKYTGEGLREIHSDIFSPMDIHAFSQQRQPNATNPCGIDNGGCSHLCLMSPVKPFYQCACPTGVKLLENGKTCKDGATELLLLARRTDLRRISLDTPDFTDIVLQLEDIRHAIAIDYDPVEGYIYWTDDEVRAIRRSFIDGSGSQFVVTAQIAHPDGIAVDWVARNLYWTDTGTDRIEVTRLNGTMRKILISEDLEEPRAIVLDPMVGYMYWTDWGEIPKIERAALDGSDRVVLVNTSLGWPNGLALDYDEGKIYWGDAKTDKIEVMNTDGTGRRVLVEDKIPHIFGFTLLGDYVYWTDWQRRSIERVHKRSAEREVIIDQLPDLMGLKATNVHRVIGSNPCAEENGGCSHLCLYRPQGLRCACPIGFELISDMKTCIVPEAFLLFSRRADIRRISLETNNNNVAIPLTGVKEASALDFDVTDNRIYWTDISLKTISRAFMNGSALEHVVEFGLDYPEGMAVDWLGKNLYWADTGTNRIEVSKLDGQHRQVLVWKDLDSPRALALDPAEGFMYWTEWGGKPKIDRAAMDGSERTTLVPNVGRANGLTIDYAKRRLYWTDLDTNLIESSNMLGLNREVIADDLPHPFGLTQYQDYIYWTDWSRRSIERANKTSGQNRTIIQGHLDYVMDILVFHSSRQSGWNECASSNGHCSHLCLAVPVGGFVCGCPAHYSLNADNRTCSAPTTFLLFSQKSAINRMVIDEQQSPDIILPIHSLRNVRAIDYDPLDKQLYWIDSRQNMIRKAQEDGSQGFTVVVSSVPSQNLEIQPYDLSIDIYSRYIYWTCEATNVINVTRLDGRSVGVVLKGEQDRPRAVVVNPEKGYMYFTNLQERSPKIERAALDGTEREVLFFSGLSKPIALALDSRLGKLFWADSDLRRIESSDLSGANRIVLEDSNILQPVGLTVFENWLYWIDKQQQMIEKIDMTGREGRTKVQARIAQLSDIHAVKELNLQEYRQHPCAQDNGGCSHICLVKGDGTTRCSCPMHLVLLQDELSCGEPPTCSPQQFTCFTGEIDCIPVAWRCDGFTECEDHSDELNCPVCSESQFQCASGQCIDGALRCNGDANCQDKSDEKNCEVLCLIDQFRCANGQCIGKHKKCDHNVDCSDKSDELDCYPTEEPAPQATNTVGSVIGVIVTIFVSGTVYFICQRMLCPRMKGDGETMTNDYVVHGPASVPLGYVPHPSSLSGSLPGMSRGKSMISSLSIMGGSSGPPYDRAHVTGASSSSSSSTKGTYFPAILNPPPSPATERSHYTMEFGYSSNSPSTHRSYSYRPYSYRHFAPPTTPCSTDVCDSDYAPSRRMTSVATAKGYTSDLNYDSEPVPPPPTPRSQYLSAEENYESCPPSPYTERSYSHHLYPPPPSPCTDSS
UniProt O35625: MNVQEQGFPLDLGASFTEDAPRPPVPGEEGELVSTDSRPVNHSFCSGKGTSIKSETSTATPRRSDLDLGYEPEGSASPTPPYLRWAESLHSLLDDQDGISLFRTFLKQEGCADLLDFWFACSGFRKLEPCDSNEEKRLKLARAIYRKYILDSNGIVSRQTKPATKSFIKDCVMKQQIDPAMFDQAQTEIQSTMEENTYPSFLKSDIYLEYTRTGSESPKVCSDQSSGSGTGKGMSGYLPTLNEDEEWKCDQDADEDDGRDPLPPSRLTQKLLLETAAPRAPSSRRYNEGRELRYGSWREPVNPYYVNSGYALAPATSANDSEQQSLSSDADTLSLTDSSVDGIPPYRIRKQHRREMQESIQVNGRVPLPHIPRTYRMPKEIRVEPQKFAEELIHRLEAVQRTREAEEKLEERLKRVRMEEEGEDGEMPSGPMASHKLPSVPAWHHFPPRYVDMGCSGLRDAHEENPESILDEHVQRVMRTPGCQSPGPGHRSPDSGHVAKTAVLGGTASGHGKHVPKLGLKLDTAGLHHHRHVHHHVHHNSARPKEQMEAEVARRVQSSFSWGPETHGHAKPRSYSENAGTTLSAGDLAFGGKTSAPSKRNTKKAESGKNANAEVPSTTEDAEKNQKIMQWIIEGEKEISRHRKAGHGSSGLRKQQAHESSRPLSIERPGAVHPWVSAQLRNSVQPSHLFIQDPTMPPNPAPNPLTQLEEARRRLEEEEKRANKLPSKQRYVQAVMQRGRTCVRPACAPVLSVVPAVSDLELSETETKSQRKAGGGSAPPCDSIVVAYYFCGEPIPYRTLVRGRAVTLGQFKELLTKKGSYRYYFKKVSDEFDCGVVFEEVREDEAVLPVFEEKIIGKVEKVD

Target: Lrp6 fused to an N-terminal mEGFP-tag (UniProt O75581)
Assay: co-recruitment into biofunctional nanodot arrays

| Substance | binding |
| --- | --- |
| mTagBFP-Axin1 (from UniProt O35625 1-863) | binds |
| tandem mCherry-Axin1 fusion (from UniProt O35625 1-863) | binds |
